The results in this text go back to paper PMC5983841.

By UniProt entry, the sequences of proteins in these tests, tags left out. Residues count along the entry.
UniProt P70302, residues 23-685: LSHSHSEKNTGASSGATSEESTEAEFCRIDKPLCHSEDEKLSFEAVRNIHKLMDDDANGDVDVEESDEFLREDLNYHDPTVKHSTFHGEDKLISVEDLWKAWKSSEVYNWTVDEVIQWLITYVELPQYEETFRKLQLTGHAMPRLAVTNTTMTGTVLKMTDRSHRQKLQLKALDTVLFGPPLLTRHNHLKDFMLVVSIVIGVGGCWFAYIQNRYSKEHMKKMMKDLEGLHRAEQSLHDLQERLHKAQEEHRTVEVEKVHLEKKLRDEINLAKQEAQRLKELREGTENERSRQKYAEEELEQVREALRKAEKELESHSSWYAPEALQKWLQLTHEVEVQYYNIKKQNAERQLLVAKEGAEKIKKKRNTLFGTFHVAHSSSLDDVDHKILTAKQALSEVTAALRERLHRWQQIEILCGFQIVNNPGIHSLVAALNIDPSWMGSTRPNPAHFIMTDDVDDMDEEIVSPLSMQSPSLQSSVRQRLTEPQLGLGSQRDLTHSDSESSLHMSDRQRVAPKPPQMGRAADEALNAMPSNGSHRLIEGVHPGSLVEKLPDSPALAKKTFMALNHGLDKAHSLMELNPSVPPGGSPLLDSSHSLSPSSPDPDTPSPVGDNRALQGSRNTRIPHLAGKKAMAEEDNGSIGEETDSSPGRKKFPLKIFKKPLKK
UniProt Q8BWG9: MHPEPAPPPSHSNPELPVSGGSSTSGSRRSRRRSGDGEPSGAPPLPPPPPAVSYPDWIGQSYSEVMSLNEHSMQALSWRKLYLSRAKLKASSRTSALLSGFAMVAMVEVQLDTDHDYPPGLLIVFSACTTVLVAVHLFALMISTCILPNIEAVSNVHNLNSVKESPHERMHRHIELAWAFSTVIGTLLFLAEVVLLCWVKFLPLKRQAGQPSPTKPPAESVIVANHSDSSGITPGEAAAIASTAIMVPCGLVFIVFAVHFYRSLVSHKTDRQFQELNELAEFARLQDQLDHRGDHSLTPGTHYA
UniProt P83093, residues 15-746: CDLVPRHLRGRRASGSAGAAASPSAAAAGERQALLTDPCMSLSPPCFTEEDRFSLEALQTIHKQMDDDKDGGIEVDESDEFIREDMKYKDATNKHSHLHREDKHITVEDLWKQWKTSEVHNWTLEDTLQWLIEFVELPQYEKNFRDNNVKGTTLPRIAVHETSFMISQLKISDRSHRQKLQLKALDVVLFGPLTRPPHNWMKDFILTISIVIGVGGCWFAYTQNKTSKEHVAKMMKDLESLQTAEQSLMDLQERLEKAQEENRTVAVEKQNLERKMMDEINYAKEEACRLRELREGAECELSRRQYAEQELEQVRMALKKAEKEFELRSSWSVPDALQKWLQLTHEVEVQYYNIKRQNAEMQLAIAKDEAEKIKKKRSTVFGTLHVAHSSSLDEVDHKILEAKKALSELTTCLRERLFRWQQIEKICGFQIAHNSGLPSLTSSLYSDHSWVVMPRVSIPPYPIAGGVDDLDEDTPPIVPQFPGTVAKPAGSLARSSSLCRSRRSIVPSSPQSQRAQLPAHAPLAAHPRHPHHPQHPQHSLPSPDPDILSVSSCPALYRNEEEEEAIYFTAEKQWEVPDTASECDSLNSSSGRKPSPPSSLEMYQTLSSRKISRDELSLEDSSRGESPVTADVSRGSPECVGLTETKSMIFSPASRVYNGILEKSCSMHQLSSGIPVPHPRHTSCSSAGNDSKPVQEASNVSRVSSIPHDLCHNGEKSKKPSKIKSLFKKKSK

The target of the test is stromal interaction molecule 1 (STIM1), endogenous in NIH 3T3 cells (mouse (endogenous in NIH 3T3)) (UniProt P70302). Briefly: co-IP; NIH 3T3 whole cell lysates in 1% CHAPS lysis buffer (50 mM Tris, 150 mM NaCl, 1 mM EDTA, pH 8.0); anti-STIM1 antibody 7 h at 4 °C, protein A-agarose 16 h at 4 °C; blots for STIM2 and Orai1; cells store-filled (control) or treated with 20 μM CPA for 6 min before lysis.

Results are given in words; binding and its absence hold for the method and conditions named. In cells and extracts the contact can be indirect. Some entries that bind do so weakly or less than the wild type.

Consider “Orai1, endogenous in NIH 3T3 cells (from UniProt Q8BWG9 1-304)”, for which the binding result is “binds”.
In the case of “stromal interaction molecule 2 (STIM2), endogenous in NIH 3T3 cells (from UniProt P83093 15-746)”, the binding entry was “binds”.
